No constants are given. Whether binding was seen depends on the method and setting. In cells and extracts the contact can be indirect.
Target: HA-nsp3mut/4-V5 (unprocessed nsp3/4 polyprotein with inactive PLpro protease, C1592A) (SARS-CoV-2)
Assay: co-IP

B1: HSD17B12 (enzyme, UniProt Q53GQ0 1-312)
chain: MESALPAAGFLYWVGAGTVAYLALRISYSLFTALRVWGVGNEAGVGPGLGEWAVVTGSTDGIGKSYAEELAKHGMKVVLISRSKDKLDQVSSEIKEKFKVETRTIAVDFASEDIYDKIKTGLAGLEIGILVNNVGMSYEYPEYFLDVPDLDNVIKKMININILSVCKMTQLVLPGMVERSKGAILNISSGSGMLPVPLLTIYSATKTFVDFFSQCLHEEYRSKGVFVQSVLPYFVATKLAKIRKPTLDKPSPETFVKSAIKTVGLQSRTNGYLIHALMGSIISNLPSWIYLKIVMNMNKSTRAHYLKKTKKN
With B1 the binding was “no binding”.

Source: paper PMC10688318
